The list shows a part of the results.

Protein sequences, listed by entry. Tags and fused reporters are not part of them. Lines headed by an entry give the natural chain unless they say otherwise; changes in a name come on top.
UniProt O95297: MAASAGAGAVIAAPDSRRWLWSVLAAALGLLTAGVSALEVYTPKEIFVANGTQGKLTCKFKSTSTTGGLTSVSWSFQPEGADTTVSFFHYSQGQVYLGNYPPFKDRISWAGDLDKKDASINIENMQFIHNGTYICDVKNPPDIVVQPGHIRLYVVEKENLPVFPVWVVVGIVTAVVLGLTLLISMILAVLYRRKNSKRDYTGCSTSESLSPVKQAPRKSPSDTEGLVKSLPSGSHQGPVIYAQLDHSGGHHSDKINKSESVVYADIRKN
UniProt Q9H000: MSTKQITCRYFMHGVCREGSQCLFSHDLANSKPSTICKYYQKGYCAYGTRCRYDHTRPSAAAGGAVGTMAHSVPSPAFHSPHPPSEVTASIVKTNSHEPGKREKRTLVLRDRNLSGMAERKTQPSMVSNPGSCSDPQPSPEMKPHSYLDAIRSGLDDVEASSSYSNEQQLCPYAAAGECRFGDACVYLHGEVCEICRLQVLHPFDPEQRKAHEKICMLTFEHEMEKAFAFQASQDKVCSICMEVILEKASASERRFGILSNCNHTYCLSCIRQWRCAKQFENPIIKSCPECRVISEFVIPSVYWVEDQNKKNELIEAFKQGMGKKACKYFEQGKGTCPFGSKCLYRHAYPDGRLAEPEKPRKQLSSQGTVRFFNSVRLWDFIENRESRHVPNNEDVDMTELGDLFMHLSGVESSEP
UniProt Q99797: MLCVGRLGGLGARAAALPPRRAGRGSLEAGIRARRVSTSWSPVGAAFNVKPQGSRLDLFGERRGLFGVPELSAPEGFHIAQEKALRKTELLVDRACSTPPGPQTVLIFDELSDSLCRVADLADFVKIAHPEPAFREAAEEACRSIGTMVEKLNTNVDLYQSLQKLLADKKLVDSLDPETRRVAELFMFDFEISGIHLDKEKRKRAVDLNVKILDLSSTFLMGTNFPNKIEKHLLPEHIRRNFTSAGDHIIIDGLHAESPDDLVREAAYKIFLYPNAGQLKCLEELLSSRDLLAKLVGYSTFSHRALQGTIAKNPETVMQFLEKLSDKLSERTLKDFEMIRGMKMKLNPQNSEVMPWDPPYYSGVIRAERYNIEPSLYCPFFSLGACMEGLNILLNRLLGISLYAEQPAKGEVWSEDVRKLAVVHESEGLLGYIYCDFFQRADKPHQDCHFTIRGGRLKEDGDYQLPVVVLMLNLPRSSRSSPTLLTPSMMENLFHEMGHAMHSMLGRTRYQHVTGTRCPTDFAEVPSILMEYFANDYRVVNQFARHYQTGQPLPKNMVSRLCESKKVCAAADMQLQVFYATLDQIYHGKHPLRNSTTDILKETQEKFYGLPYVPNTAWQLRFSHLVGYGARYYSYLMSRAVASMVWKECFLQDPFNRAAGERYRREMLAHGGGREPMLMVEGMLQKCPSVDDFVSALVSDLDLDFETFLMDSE
UniProt O95563: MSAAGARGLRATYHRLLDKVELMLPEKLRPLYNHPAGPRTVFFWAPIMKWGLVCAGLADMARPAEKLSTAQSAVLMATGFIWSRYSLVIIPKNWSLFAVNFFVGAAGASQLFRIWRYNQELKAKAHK
UniProt Q96T76: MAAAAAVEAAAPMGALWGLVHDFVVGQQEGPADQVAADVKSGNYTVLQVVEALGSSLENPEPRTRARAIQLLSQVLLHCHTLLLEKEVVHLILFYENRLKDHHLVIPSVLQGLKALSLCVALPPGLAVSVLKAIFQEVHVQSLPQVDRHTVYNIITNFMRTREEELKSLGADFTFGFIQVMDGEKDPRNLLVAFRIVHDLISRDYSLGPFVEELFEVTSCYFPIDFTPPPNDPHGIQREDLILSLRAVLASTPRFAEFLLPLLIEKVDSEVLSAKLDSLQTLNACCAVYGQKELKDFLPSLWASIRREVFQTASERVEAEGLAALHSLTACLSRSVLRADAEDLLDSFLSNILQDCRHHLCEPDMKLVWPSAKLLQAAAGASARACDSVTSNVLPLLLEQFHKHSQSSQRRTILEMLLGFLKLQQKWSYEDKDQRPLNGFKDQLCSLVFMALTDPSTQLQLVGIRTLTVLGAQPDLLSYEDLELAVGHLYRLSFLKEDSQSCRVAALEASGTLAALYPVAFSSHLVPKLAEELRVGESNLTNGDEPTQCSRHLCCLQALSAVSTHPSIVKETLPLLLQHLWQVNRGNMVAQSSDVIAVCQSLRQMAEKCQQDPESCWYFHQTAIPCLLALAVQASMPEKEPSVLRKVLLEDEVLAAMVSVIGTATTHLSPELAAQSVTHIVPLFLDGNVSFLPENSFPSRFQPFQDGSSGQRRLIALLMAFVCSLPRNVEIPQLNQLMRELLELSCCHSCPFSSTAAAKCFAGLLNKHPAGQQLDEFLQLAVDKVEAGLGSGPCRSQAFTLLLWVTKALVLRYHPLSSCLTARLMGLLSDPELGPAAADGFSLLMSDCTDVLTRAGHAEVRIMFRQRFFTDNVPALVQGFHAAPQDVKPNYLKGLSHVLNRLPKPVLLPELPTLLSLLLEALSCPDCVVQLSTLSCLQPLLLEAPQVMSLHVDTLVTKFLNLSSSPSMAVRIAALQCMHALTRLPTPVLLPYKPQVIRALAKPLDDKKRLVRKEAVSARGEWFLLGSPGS
UniProt Q96BX8: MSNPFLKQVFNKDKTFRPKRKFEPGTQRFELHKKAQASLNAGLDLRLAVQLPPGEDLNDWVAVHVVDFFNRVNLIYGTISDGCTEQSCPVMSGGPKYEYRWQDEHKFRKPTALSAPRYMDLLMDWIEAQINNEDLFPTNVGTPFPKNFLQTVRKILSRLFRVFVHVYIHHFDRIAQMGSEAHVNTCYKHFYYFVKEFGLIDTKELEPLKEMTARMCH
UniProt Q5XKP0: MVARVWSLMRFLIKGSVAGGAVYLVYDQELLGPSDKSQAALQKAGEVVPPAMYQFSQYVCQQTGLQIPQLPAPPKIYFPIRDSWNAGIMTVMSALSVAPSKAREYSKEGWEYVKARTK
UniProt Q99547: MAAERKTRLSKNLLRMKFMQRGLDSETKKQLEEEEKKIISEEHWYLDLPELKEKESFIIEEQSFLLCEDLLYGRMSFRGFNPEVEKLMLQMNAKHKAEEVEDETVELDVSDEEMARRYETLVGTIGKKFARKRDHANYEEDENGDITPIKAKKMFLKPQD
UniProt Q9UL63, whole entry, looked up: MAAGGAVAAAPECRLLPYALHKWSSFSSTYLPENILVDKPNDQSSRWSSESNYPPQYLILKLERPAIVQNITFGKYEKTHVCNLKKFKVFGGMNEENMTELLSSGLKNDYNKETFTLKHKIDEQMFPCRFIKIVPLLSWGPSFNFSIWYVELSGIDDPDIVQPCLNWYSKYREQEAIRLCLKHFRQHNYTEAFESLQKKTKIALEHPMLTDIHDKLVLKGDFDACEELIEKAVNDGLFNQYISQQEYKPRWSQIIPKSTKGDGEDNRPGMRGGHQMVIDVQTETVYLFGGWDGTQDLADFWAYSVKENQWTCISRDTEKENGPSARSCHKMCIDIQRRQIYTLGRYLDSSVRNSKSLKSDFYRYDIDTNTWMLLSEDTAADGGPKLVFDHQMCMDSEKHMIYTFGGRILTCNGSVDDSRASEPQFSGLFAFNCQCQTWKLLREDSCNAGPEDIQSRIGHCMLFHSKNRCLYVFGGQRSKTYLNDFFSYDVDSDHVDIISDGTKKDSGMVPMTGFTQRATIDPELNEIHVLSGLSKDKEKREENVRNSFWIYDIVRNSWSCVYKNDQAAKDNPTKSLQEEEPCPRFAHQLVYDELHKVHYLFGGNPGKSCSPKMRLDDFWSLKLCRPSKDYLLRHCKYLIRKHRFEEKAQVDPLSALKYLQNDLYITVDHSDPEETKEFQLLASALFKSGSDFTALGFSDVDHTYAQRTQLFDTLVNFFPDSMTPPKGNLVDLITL
UniProt Q9H8M7: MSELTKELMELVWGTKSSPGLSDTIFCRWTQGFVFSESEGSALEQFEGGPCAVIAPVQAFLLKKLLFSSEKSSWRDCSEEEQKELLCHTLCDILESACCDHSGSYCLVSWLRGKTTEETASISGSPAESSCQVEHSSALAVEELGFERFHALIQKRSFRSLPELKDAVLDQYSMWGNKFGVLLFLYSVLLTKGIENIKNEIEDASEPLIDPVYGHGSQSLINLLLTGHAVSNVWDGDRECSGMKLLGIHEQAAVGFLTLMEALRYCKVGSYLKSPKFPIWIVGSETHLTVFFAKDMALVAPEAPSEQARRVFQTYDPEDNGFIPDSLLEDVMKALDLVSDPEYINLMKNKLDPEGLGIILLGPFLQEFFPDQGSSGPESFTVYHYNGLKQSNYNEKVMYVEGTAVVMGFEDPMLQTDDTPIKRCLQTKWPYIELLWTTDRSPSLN
UniProt Q9BRT3: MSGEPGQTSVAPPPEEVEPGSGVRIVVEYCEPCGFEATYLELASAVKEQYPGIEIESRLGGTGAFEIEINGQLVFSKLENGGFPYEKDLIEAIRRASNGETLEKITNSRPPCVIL

Compound in this experiment: CS(=O)(=O)N1CCN(Cc2cc3nc(-c4cccc5[nH]ncc45)nc(N4CCOCC4)c3s2)CC1 [pictilisib]
The experiment is described as follows: log2 fold change, soluble protein after heating vs DMSO (PISA); higher = thermal stabilisation; K562 cells, 10 uM, 30 min; active = over 0.2 and 3.5 SD of the protein, either way, in both replicates (recomputed). The method, boiled down:
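Thermal stability values are relative to control samples and come from duplicates. They are expressed as log2 fold changes. For measurement, K562 cells (2×10^6 cells/mL) received 10 μM compound for 30 min, and aliquots were heated for 3 min over 48°C-58°C, pooled, and extracted at 4°C in PBS with 0.5% NP-40. Soluble protein, the supernatant after 21,000xg for 90 min, was quantified by TMTpro 16plex LC-MS/MS with equalised channel sums.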
MPZL1 (UniProt O95297): the log2 fold change was inactive: -0.029.
Turning to MRPL27 (UniProt Q9P0M9), the log2 fold change was inactive: -0.087.
Regarding MKRN2 (UniProt Q9H000), the log2 fold change was inactive: 0.03.
On to MIPEP (UniProt Q99797), for which the log2 fold change is inactive: 0.046.
Consider MRPL55 isoform 2 (UniProt Q7Z7F7), for which the log2 fold change is inactive: 0.117.
With MRPL30 isoform 2 (UniProt Q8TCC3) the figure was inactive: -0.038.
With MPC2 (UniProt O95563) the figure was inactive: 0.
Turning to MMS19 isoform 8 (UniProt Q96T76), the log2 fold change was inactive: -0.008.
As for MOB3A (UniProt Q96BX8), the log2 fold change is inactive: 0.121.
With MICOS13 (UniProt Q5XKP0) the figure was inactive: -0.001; with MPHOSPH6 (UniProt Q99547), inactive: -0.017.
For MKLN1 (UniProt Q9UL63), the log2 fold change is inactive: -0.032.
In the case of MINDY3 (UniProt Q9H8M7), the log2 fold change was inactive: 0.072.
In the case of MRPL1 (UniProt Q9BYD6), the log2 fold change is inactive: 0.023.
With MIEN1 (UniProt Q9BRT3) the figure was inactive: 0.001.
